Source: patent US20040110206A1, “Waveform modulated light emitting diode (LED) light source for use in a method of and apparatus for screening to identify drug candidates” (Bio TechPlex Corporation, priority 2002, published 2004)
For at least one compound, name, drawing or mass did not settle the structure.

Tested on: normal human bronchial epithelial cells (NHBE)
Assay: Cumulative dose kinetic responses of intracellular Ca++, Cl- and cell membrane potential (simultaneous Fluo-3, di-MEQ and RH421 fluorescence photon counting)
Format: cell-based
Experimental: Normal human bronchial/tracheal epithelial cells (NHBE, Clonetics) were cultured in T-25 cm^2 flasks at 37° C., 5% CO2 using Bronchial/Tracheal Epithelial Cell Growth Medium containing Retinoic Acid (BEGM, w/RA, Clonetics). When the NHBE cells in the T-25 flasks reached 60%-80% confluency, the cells were passaged using a seeding density of 3500 cells/cm^2. A portion of the cells was passaged in T-25 flasks again while the remaining cells were seeded on UV-exposed Vitrogen (pH balanced 1:1 BEGM to Vitrogen) coated 4-well cover glass chambers (LabTek II). NHBE cells normally attached to the collagen-coated cover glass chamber within 24 hrs. Prior to these cells reaching 60% confluency, they were used for all the experiments described below. Cells used in all the experiments were either 2nd or 3rd passage cells maintained in Bronchial/Tracheal Epithelial Cell Growth Medium with Retinoic Acid (BEGM, w/RA, Clonetics).
The following procedures for loading the cells with fluorophore were employed. Balanced Hank's (BH) solution without phenol red was used as the medium for all the fluorophore preparations and cell washings unless stated otherwise. Fluo-3 (a Ca^++ indicator), di-MEQ (a Cl^− indicator) and RH421 (a cell membrane potential indicator) were loaded into cells sequentially at room temperature. Cells were first incubated with 8 μM Fluo-3 solution for 60 minutes, followed by incubating with 50 μM di-MEQ for 5 minutes and then finally with 10 μM RH421 for 5 minutes. Extraneous dyes were washed with BH solution between each fluorophore loading procedure. The cells were allowed to stabilize in BEGM for a minimum of 15 minutes at room temperature prior to the beginning of each experiment.
Experiments were performed at room temperature. All tested agents were prepared in Balanced Hank's Solution. One of the wells of the cover glass chamber was placed on the stage of the inverted microscope and the cells loaded with the fluorophores were visually focused with the violet, green and orange emitted light from the cells approximately in the same focal plane. At a sampling frequency of 100 Hz, cells with the following photon counts were chosen for the study: 20 to 50 counts per channel (cpc) for Ca^++ fluorescence, 70 to 200 cpc for Cl^− fluorescence, and 20 to 50 cpc for cell membrane potential fluorescence. After establishing a 2 minute baseline, increasing doses of the agent of interest were added topically to the wells 2 minutes apart. At the end of each experiment, a toxic dose of the agent of interest was added to the sample to either shrink or swell the cells beyond their normal cell volume regulatory range. This caused the fluorescence signals of each of these fluorophores to reach either maximum or minimum values. […] Background fluorescence was recorded using a cell free area of the same well. If the signal to background ratio was not higher than a factor of 10, the experiments were also discarded.
The kinetic responses were measured as photon counts acquired in 10 ms intervals over>800 seconds. […] The correlation of these events and their kinetics, observations that can only be made with the present invention, provides unique insights into the mechanism by which Glibenclamide affects the cells.
UTP is a ligand to the p2Y receptor. The kinetic responses were measured as photon counts acquired in 10 ms intervals over >800 seconds.
Hyperpolarization of the cell membrane can also be induced via different cellular mechanisms such as by decreasing intracellular potassium. […] The kinetic responses were measured as photon counts acquired in 10 ms intervals over >900 seconds. It should be noted that the relative potencies of these agents in terms of the mechanisms for eliciting the temporal responses, the duration of the agent actions and the magnitude of hyperpolarization of the cell membrane can be compared and monitored for the first time. […]

O=c1[nH]c2cc(C(F)(F)F)ccc2n1-c1cc(C(F)(F)F)ccc1O [NS 1619, 1,3-dihydro-1-[2-hydroxy-5-(trifluoromethyl)phenyl]-5-(trifluoromethyl)-2H-benzimidazol-2-one]
intracellular Ca++ response (0.01 mM): essentially no change | intracellular Cl- response (0.01 mM): essentially no change | membrane potential response (0.01 mM): small increase | intracellular Ca++ response (0.1 mM): essentially unchanged | intracellular Cl- response (0.1 mM): essentially unchanged | membrane potential response (0.1 mM): small increase | intracellular Ca++ response (1 mM): sharp increase | intracellular Cl- response (1 mM): simultaneous sharp decrease | membrane potential response (1 mM): simultaneous sharp increase
